# Laboratory results: PubChem BioAssay AID1948 (National Center for Advancing Translational Sciences (NCATS), 2009)
# Several values for one entry are separate records, joined by “and”; a condition that tells them apart may be missing. Equal values may be shown once. Out of some 110,000 compounds screened, about 20 (0.02%) were called active. Inconclusive results (about 2%) are left out. Calls come from the whole dose curve; as a rule, active = well fitted activation curve with a large enough effect; inconclusive = small, poorly fitted or top-dose-only effect; inactive = no such curve, though single readings can be large or run the other way. This is a selection; strong and weak results do not stand in their true shares. The source gives no active or inactive call for entries shown without one.
# Experiment: qHTS Assay for Compounds that Induce Erasure of Genomic Imprints;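 for activity change, positive = activation: 0% = negative control wells on the plate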
# Conditions: mouse ES Peg3-LacZ reporter, beta-gal luminescence, 40 h; activity change, positive = activation: at 60.7 µM (top of the series)
# Description: qHTS Assay for Compounds that Induce Erasure of Genomic Imprints NIH Chemical Genomics Center [NCGC] NIH Molecular Libraries Screening Centers Network [MLSCN] Assay Submitter (PI): JEFFRIES, SEAN, NCGC, University of Cambridge NCGC Peg3 Imprinting Assay Overview Genomic imprinting is the epigenetic process whereby genes are expressed in a parent of origin fashion. […] Unlike some forms of epigenetic silencing that can be overcome by overexpression of transcription factors, genomic imprinting stably represses the expression of one allele despite potentially high levels of expression from the other allele. […] During mouse embryonic day 11.5 imprints are erased in PGCs so that sex specific imprints can be reestablished during gametogenesis. Embryonic germ (EG) cells can be derived from developing PGCs at embryonic day 11.5 and these cells often lack genomic imprints. […] Embryonic stem (ES) cells are a cell type similar to EG cells in phenotype and transcriptional profile, yet ES cells maintain genomic imprints. This similarity between ES and EG cells prompted us to use ES cells to look for factors which could induce imprint erasure. To investigate the stability of genomic imprinting, ES cells were derived from mice with an insertion of a LacZ-Neomycin reporter construct in the Peg3 locus. Peg3 is an imprinted locus where gene expression is restricted to the paternal allele. […] Using LacZ expression we are able to monitor the state of the Peg3 imprint. In order to dissect the mechanisms involved in imprint erasure using a forward chemical genetics approach we developed a cell based phenotype assay using an endogenous silence imprinted locus. This assay utilizes maternally inherited Peg3LacZ-Neo ES cells by monitoring the LacZ expression from the normally silent Peg3 allele. To facilitate screening, high-density feeder-free ES cell culture has been optimized so that ES cells can be grown in 1536 for over four days without feeding or washes. The assay uses a luminescence based read out for LacZ activity and is a homogenous assay optimal for HTS.
# NCGC Peg3 Imprinting Assay Protocol Summary ES cell lines were derived from blastocysts taken from Peg3LacZ-Neo x129 matings. Lines were sexed and genotyped for the Peg3LacZ-Neo allele. Female cells carrying the reporter allele were used in this study. Cells were derived on a layer of mouse embryonic fibroblasts and passaged multiple times before switching to feeder free culture. Cells were maintained feeder free on gelatin coated dishes in DMEM/F12 media supplemented with 15% FBS, 2mM L-glutamine, 100 units/ml penicillin, 100ug/ml streptomycin, 0.1mM MEM nonessential amino acids, 1mM sodium pyruvate, 0.1% sodium bicarbonate, 0.1mM 2-Mercaptoethanol, and 400 units/ml leukemia inhibitory factor (LIF) at 37C with 5% CO2. The assay was performed in 1536-well format. A single luminescence read was taken at the end of the assay and the data was normalized by plate to internal negative controls. Maximum efficacy and AC50 values were calculated from dose-response data using the standard Hill equation. 1536 well plates were filled with 0.5ul of 0.1% gelatin per well, spun down and incubated for at least 30 min at 37C. The ES cells were then trypsini Peg3 1536-well assay protocol: (1)Plate 0.5ul/well 0.1% gelatin in white tissue culture treated 1536-well plates, spin and incubate at 37C for at least 30 min. (2)Add 5ul/well (300 cells) of ES cell suspension from freshly trypsinized cells and incubate at 37C, 5% CO2 for 40 hours. (3)Add 5ul/well of freshly prepared BetaGlo solution and incubate at room temperature for 5 minutes. (4)Read luminescence on the ViewLux plate reader. Keywords Genomic Imprinting, Germ Cells, Embryonic Stem Cell, DNA Methylation, Peg3, qHTS, NIH roadmap, NCGC
# Potency is the fitted concentration of half-maximal effect.
SMILES,Potency,"activity change, positive = activation"
CNc1nc(-c2cccc(C#N)c2)nc2ccccc12,active: 1.26 µM,
C=CCN1C(=O)C2C(C(=O)NCc3ccccc3)C3(C)C=CC2(O3)C1C(=O)NC(C)(C)C (stereo unspecified),active: 10 µM,
CCCOC(=O)NC1C(NC(=O)OCCC)N(C)C(=O)N1C (stereo unspecified),,-3.61%
COc1ccc(C(C)=O)cc1COC(=O)c1cnc(C)cn1,active: 15.8 µM,
Cc1cc(NC(=O)CSc2nnc(-c3ccoc3C)o2)no1,,-51.2%
C=CCNc1nc(N)c(C(=O)Nc2cc(C)on2)s1,,-44.5%
CCOc1ccc(-n2c(Cc3cc(=O)[nH]c(=O)[nH]3)nnc2SC(C)C)cc1,,33.2%
COC(=O)/C(=C1\OC(=O)C(c2ccccc2)C1=O)c1ccccc1 (stereo unspecified),,-79.8%
COc1ccc(-c2nc3cnc(N4CCNCC4)nc3n(Cc3cccs3)c2=O)cc1,,inactive: -50.4%
COc1ccc(CNc2nc(-c3ccccc3OC)nc3ccccc23)c(OC)c1,,-39.8%
Cc1cccc(CNc2nc(-c3ccc(C(=O)N(C)C)cc3)nc3ccccc23)c1,,-32.6%
O=C(Nc1nc2c(s1)CCCC2)C1COc2ccccc2O1 (stereo unspecified),,inactive: -57.2%
COc1ccc2c(c1)Cc1sc(NC(C)=O)nc1-2,,inactive: -57.3%
COc1ccc(-c2nc3ccccc3s2)cc1O,,-91.1%
OC[C@H]1O[C@@H](n2cnc3cncnc32)[C@H](O)[C@@H]1O,,-39.3%
FC(F)(F)c1ccccc1-c1nc(Nc2ccncc2)c2ccccc2n1,,-34.3%
N#Cc1cccc(-c2nc(NCc3cccs3)c3ccccc3n2)c1,active: 6.31 µM,
CCOCCCNc1ncc2c(n1)CC(c1ccc(C)cc1)CC2=O (stereo unspecified),,34.7%
Cc1cc(C)n(-c2nc3c(c(=O)n(Cc4ccc(Cl)c(Cl)c4)c(=O)n3C)n2C)n1,,31.4%
C[C@@H]1OC(OC2CC[C@@]3(C)C(CC[C@@]4(C)C3CC=C3C5CC(C)(C)CC[C@]5(C(=O)OC5OCC(O)[C@@H](O)[C@@H]5OC5O[C@@H](C)[C@H](O[C@H]6OC(CO)C(O)C(O)C6O)C(O)C5O)C(O)C[C@@]34C)C2(C)C)C(O)C(O)[C@H]1OC1OCC(O)C(O)[C@H]1O (stereo partly specified),,-31.7%
CC(C)C(=O)Nc1ccc(NC(=O)c2ccccn2)cn1,,inactive: -84%

# Among those listed so far, 7 have a carbonyl joined to an NH by a bond outside any ring:
SMILES,Potency,"activity change, positive = activation"
C=CCN1C(=O)C2C(C(=O)NCc3ccccc3)C3(C)C=CC2(O3)C1C(=O)NC(C)(C)C (stereo unspecified),active: 10 µM,
CCCOC(=O)NC1C(NC(=O)OCCC)N(C)C(=O)N1C (stereo unspecified),,-3.61%
Cc1cc(NC(=O)CSc2nnc(-c3ccoc3C)o2)no1,,-51.2%
C=CCNc1nc(N)c(C(=O)Nc2cc(C)on2)s1,,-44.5%
O=C(Nc1nc2c(s1)CCCC2)C1COc2ccccc2O1 (stereo unspecified),,inactive: -57.2%
COc1ccc2c(c1)Cc1sc(NC(C)=O)nc1-2,,inactive: -57.3%
CC(C)C(=O)Nc1ccc(NC(=O)c2ccccn2)cn1,,inactive: -84%

# Continuation:

SMILES,Potency,"activity change, positive = activation"
CN(C)c1ccc(-c2nc(Nc3ccncc3)c3ccccc3n2)cc1,,-45.5%
Oc1ccc(O)cc1,active: 12.6 µM and active: 10 µM,
CN(Cc1ccco1)c1ncnc2ccc(-c3cccnc3)cc12,,-53.1%
CCN(CC)c1ccc(NC(=O)c2cncc(Br)c2)cc1,,-31.6%
CCOCCn1c(CN2CCN(c3ccc(F)cc3)CC2)nc2c1c(=O)n(C)c(=O)n2C,,32.4%
Cc1ccc(-n2c(C)cc(C3N=C(N)Nc4nc5ccccc5n43)c2C)c(C)c1 (stereo unspecified),,inactive: -52%
Cc1nc2cnc(Nc3ccccc3)nc2n(Cc2ccc(F)cc2)c1=O,active: 3.16 µM,
CCN1C(=O)CC(N2CCC(Nc3ccc(F)cc3)CC2)C1=O (stereo unspecified),,40.1%
COc1cccc(-c2nc(Nc3ccncc3)c3ccccc3n2)c1,,-36.6%
CCC(=O)Nc1cnc(NC(=O)c2cccc(F)c2)cc1C,,11.9%
Cc1ccc2nc(NC(=O)c3cccs3)sc2c1,,-86.2%
O=C(Nc1ccc(-c2nc3ccccc3o2)cc1)C1CCCO1 (stereo unspecified),,-76.8%
Nc1nc(Cl)nc2c1ncn2[C@H]1C[C@H](O)[C@@H](CO)O1,,-36%
COc1ccc(Cn2c3nc4ccccc4nc3c3c(=O)n(Cc4ccco4)c(C)nc32)cc1,,inactive: -32.1%
CCOc1ccccc1NC(=O)c1cccc(NC(=O)c2ccco2)c1,,-36.6%
CN(C)C(=O)c1ccc(NC(=O)c2cncc(Br)c2)cc1,,-82.6%
Clc1ccccc1-c1ccc2ncnc(N3CCNCC3)c2c1,active: 10 µM,
O=c1c2ccccc2nnn1CSc1nnc2ccccn12,,-69.2%
O=c1cc(-c2ccccc2O)oc2cc(O)ccc12,,-60.7%
Cc1cnc(CNc2nc(-c3ccc(N(C)C)cc3)nc3ccccc23)cn1,,-40%
